# Measured values published in PMC9931811.
# Amino acid sequences for entries named in this document (tags omitted).
# UniProt Q676U5: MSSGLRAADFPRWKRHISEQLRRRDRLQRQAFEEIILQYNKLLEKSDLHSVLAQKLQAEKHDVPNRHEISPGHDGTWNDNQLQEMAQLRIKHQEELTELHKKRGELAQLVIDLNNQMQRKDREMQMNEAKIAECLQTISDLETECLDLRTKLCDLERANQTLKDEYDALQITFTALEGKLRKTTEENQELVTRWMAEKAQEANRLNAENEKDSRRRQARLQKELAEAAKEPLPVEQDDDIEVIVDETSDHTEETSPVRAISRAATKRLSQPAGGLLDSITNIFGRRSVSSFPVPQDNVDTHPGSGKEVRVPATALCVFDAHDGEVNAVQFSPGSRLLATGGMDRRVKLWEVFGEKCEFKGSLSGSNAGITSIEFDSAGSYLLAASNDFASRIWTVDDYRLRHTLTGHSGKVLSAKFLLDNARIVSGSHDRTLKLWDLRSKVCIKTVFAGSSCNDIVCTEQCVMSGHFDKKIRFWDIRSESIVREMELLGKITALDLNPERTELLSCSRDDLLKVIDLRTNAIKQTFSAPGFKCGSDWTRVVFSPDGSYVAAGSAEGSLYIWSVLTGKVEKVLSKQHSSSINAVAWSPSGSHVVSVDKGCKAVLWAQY
# UniProt Q9HC29: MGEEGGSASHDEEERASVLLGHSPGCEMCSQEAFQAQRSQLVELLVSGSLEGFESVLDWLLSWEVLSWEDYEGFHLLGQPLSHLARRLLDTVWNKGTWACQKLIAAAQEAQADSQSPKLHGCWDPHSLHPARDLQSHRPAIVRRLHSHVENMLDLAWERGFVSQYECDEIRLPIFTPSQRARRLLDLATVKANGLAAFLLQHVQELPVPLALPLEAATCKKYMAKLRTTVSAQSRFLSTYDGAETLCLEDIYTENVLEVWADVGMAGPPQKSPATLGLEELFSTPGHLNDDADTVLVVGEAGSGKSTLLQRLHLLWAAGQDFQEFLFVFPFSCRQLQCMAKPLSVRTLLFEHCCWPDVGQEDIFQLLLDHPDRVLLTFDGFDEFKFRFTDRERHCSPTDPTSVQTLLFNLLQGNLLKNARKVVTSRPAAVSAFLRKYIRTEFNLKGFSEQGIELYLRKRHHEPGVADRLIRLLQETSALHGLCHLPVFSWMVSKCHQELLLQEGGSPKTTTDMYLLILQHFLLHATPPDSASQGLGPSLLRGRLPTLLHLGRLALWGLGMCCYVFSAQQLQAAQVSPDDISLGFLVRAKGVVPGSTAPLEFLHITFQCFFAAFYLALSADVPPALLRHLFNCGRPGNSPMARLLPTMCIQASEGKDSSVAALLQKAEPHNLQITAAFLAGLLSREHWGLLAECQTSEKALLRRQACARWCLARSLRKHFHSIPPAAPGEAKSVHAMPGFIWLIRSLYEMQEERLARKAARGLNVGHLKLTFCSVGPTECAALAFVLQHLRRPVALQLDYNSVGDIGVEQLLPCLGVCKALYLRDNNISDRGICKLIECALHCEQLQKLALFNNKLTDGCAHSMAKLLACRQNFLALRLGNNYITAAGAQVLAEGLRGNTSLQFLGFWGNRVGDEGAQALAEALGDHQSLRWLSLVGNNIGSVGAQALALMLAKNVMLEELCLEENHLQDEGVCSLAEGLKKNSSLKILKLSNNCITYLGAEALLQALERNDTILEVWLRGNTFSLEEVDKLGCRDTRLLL
# No constants are given. Whether binding was seen depends on the method and setting. In cells and extracts the contact can be indirect. Some binding calls cover weakened binding; strength is not graded here.
# Columns and labels:
# [1] = molecular target: P-ATG16L1 (phosphorylated ATG16L1) (human (endogenous in BIC-1 and OE33)) (UniProt Q676U5); test: co-IP; RIPA lysates of BIC-1 and OE33 cells; NOD2 or ATG16L1 antibody (1 ug) overnight at 4 C, protein A agarose beads 4 h at 4 C, washed with modified RIPA buffer; Western blot; done in both directions
# [2] = molecular target: Nucleotide binding oligomerization domain containing 2 (NOD2) (human (in BIC-1 and OE33 cells)) (UniProt Q9HC29); test: as above
binding [1],binding [2],Substance
binds,–,Nucleotide binding oligomerization domain containing 2 (NOD2) (from UniProt Q9HC29 1-1040)
–,binds,P-ATG16L1 (phosphorylated ATG16L1) (from UniProt Q676U5 1-607)
